Experiment [1] has as its target T1, FliM fused with V5-tag (C. jejuni 81-176) (UniProt Q0PC73).
T1 sequence: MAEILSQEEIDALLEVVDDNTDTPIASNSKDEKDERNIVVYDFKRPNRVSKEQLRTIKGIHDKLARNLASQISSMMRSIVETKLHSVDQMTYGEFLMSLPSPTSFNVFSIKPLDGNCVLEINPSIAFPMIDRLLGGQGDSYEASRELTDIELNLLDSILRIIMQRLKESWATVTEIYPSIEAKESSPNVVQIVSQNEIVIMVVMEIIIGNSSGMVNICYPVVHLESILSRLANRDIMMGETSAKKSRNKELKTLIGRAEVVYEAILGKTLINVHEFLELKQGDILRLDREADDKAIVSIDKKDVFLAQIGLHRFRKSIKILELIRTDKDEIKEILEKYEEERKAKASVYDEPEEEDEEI
Nature of the experiment: co-IP; called pull-down and co-IP: 3XFLAG-CheO and V5-tagged candidates from pG0407 in E. coli BL21; soluble lysate (50 mM Tris, 150 mM NaCl, 0.5% Triton X-100, pH 7.5) incubated overnight at 4°C with anti-V5 magnetic beads or ANTI-FLAG M2 gel, washed with TBS; western blot for FLAG and V5.

In experiment [2] the target is T2, CheA fused with V5-tag (C. jejuni 81-176) (UniProt Q0PBM2).
T2 sequence: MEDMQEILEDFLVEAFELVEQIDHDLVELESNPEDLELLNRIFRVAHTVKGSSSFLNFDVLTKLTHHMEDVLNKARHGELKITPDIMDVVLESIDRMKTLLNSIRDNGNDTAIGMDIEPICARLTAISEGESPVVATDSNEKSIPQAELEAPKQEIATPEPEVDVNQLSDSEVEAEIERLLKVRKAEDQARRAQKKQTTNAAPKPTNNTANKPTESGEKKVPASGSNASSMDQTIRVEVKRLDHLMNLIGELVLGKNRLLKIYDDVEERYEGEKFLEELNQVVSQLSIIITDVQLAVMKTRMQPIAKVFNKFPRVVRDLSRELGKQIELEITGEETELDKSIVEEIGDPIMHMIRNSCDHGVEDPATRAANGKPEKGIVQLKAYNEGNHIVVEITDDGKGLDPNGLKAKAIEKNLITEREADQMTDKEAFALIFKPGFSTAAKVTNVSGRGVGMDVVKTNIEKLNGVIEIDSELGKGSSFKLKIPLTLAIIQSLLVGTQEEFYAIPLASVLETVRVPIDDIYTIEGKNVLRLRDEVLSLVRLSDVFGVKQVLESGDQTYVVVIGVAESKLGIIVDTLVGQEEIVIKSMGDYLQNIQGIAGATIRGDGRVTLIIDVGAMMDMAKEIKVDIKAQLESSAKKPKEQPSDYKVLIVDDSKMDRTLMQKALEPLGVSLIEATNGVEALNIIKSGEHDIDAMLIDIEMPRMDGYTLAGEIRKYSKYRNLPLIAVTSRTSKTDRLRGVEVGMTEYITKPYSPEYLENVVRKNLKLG
The experiment is described as above.

For experiment [3], the target named is T3, FliY fused with V5-tag (C. jejuni 81-176) (UniProt Q0PC74).
T3 sequence: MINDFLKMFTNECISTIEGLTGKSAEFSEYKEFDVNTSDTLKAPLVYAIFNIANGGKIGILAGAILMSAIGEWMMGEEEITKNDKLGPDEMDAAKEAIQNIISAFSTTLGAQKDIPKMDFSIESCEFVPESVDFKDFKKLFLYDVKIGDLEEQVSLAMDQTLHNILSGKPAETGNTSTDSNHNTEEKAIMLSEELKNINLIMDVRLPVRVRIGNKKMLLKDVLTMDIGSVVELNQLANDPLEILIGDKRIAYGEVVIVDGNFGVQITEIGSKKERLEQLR
The experiment is described as above.

In experiment [4] the target is T4, CheY fused with V5-tag (C. jejuni 81-176) (UniProt A1W0A5).
T4 sequence: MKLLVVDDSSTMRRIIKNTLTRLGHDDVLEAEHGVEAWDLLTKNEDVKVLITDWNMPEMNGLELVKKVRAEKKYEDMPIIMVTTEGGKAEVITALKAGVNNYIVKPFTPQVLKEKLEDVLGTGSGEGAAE
Described as above.

The target in experiment [5] is T5, CheA, bacterial two-hybrid fusion (C. jejuni 81-176) (UniProt Q0PBM2).
T5 sequence: T2 sequence
The experiment in a line: two-hybrid; bacterial two-hybrid (BTH): T25 and T18 fusions co-transformed into E. coli BTH101; spotted on LB plates with X-Gal and IPTG, 30°C, 24-48 hours; blue colonies show an interaction.

The target of experiment [6] is T6, FliY, bacterial two-hybrid fusion (C. jejuni 81-176) (UniProt Q0PC74).
T6 sequence: T3 sequence
The experiment is described as above.

The target in experiment [7] is T7, FliM, bacterial two-hybrid fusion (C. jejuni 81-176) (UniProt Q0PC73).
T7 sequence: T1 sequence
The description is as above.

No constants are given. Whether binding was seen depends on the method and setting. For some of these results: Binding can be weak; no strength is given. Tags and fused reporters may be left off the sequences shown. For some of these results: In cells and extracts the contact can be indirect.

For the substance “CheO fused with 3X FLAG-tag (C. jejuni 81-176)”, the binding entry in experiment [1] was “binds”; in experiment [2] it was “binds”; in experiment [3] it was “binds”; in experiment [4], “no binding”.
For “CheO (CJJ81176_1265), bacterial two-hybrid fusion (C. jejuni 81-176)”, the binding entry in experiment [5], in experiment [6] and in experiment [7] was “binds” each time.

These data come from paper PMC9665402.
